This is an account of results in publication PMC3394778.

Sequences of proteins named here, by UniProt entry; tags and fusion partners are left off.
UniProt P51668: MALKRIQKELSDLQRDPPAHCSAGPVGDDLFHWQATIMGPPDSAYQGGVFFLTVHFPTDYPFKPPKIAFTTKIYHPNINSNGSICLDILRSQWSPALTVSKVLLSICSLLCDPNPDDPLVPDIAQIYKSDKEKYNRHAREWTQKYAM

The target in the assay is GST-UbcH5a (human) (UniProt P51668). Briefly: pull-down; GST-UbcH5a coupled to Glutathione Sepharose 4B as bait, His-TdT deletion mutants as prey; binding buffer A: 50 mM Tris-HCl pH 7.4, 150 mM NaCl, 2.5 mM MgCl2, 1% TritonX-100, 10% glycerol, 1 mM DTT; immunoblot with anti-His; both purified. Background: A western blot detects proteins with antibodies after separation by electrophoresis.

These are yes or no findings as the source states them, for the method shown. Where a sequence is shown, tags or fusion partners need not be part of it.

B1: His-TdT del 1 (1–262) (domain or fragment, UniProt P06526 1-262)
chain: MDPLCTASSGPRKKRPRQVGASMASPPHDIKFQNLVLFILEKKMGTTRRNFLMELARRKGFRVENELSDSVTHIVAENNSGSEVLEWLQVQNIRASSQLELLDVSWLIESMGAGKPVEITGKHQLVVRTDYSATPNPGFQKTPPLAVKKISQYACQRKTTLNNYNHIFTDAFEILAENSEFKENEVSYVTFMRAASVLKSLPFTIISMKDTEGIPCLGDKVKCIIEEIIEDGESSEVKAVLNDERYQSFKLFTSVFGVGLKT
For B1, the binding entry was “no binding”.
